# Experimental data from the supplement of paper PMC4604168 (melanoma cell lines).
# The list shows a part of the results. Many values rest on one well or one pass, so single values are uncertain.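 Cells were imaged in 1,536-well plates, and nuclei stained with an antibody against cleaved PARP were counted against all DNA-stained nuclei to give the apoptosis fraction. Screening doses were chosen to leave most cells alive, and resting and induced cleaved-PARP levels differ strongly between cell lines.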
# System: MZ2-MEL
# Test: cleaved PARP positive nuclei fraction relative to DMSO control; melanoma cells; higher = more apoptosis
# Settings: library dose: low library concentration; 72 h
row,Compound,cleaved PARP positive nuclei fraction [%]
1,"C[C@]1(c2nc3c(C(N)=O)cccc3[nH]2)CCCN1 [Veliparib] + Cc1cc([N+](=O)[O-])ccc1NS(=O)(=O)c1cc(Cl)ccc1Cl [FH535] (first compound 1.4 µM, partner dose 1 µM)",42.3
2,"C[C@@H]1CCN(C(=O)CC#N)C[C@@H]1N(C)c1ncnc2[nH]ccc12 + COc1cc2ncnc(Nc3ccc(Oc4ccccc4)cc3)c2cc1OC [SrcI1] (first compound 1 µM, partner dose 2 µM)",93.1
3,"CC1(C)NC(=O)N(c2ccc([N+](=O)[O-])c(C(F)(F)F)c2)C1=O [nilutamide] + c1cc(-c2cnn3cc(-c4ccc(OCCN5CCCCC5)cc4)cnc23)ccn1 [Dorsomorphin] (first compound 1 µM, partner dose 0.4 µM)",89
4,"C[C@@H]1CCN(C(=O)CC#N)C[C@@H]1N(C)c1ncnc2[nH]ccc12 + c1cc(-c2cnn3cc(-c4ccc(OCCN5CCCCC5)cc4)cnc23)ccn1 [Dorsomorphin] (first compound 1 µM, partner dose 0.4 µM)",85.9
5,"NC(=O)Nc1cc(-c2cccc(F)c2)sc1C(=O)N[C@H]1CCCNC1 + O=S(=O)(c1ccccc1)N(CC(F)(F)F)c1ccc(C(O)(C(F)(F)F)C(F)(F)F)cc1 [T0901317] (first compound 0.02 µM, partner dose 1.4 µM)",57.8
6,"O=C(Nc1cccc(Cl)c1)Nc1ncc(CCNc2ncnc3ccsc23)s1 + COc1cc(N2CCC(N3CCN(C)CC3)CC2)ccc1Nc1ncc(Cl)c(Nc2ccccc2S(=O)(=O)C(C)C)n1 [NVP-TAE684] (first compound 0.0008 µM, partner dose 0.08 µM)",64.1
7,"C[C@]1(c2nc3c(C(N)=O)cccc3[nH]2)CCCN1 [Veliparib] + O=S(=O)(c1ccccc1)N(CC(F)(F)F)c1ccc(C(O)(C(F)(F)F)C(F)(F)F)cc1 [T0901317] (first compound 1.4 µM, partner dose 1.4 µM)",62.5
8,"Cc1nc(Nc2ncc(C(=O)Nc3c(C)cccc3Cl)s2)cc(N2CCN(CCO)CC2)n1 [dasatanib] + CCc1ccc(CCOc2ccc(CC3SC(=O)NC3=O)cc2)nc1 [pioglitazone] (first compound 0.004 µM, partner dose 2 µM)",199
9,"CC1(C)NC(=O)N(c2ccc([N+](=O)[O-])c(C(F)(F)F)c2)C1=O [nilutamide] + O=c1cc(-c2cccc3c2Sc2ccccc2S3)oc(N2CCOCC2)c1 [KU55933] (first compound 1 µM, partner dose 1 µM)",175
10,"COc1cc(Nc2ncc(F)c(Nc3ccc4c(n3)NC(=O)C(C)(C)O4)n2)cc(OC)c1OC [Tamatinib] + Oc1nc(-c2ccc(C(F)(F)F)cc2)nc2c1CSCC2 [XAV939] (first compound 0.4 µM, partner dose 2 µM)",288
11,"O=C(CCCCCCC(=O)Nc1ccccc1)NO [vorinostat] + O=C(O)C(=O)Nc1sc2c(c1C(=O)O)CCNC2 [TCS401] (first compound 0.08 µM, partner dose 1.66667 µM)",112

# Some of the entries so far, tab-delimited:
row	Compound	cleaved PARP positive nuclei fraction [%]
4	C[C@@H]1CCN(C(=O)CC#N)C[C@@H]1N(C)c1ncnc2[nH]ccc12 + c1cc(-c2cnn3cc(-c4ccc(OCCN5CCCCC5)cc4)cnc23)ccn1 [Dorsomorphin] (first compound 1 µM, partner dose 0.4 µM)	85.9
9	CC1(C)NC(=O)N(c2ccc([N+](=O)[O-])c(C(F)(F)F)c2)C1=O [nilutamide] + O=c1cc(-c2cccc3c2Sc2ccccc2S3)oc(N2CCOCC2)c1 [KU55933] (first compound 1 µM, partner dose 1 µM)	175
